System: class I HDAC complexes
Assay: fluorescent HDAC assay, summaries over groups of complexes
Assay type: biochemical
Details: 100 μM InsP6
Procedure: Class I HDAC complexes were expressed and purified from mammalian HEK293F cells. […] We explored seven different HDAC complexes: five with HDAC1 (CoREST, MIER1, MiDAC, NuRD, and RERE); one with HDAC2 (CoREST), and one with HDAC3 (SMRT). Complexes ranged from having two components (HDAC1-RERE) to four components (HDAC1-NuRD) (Figure A, Table S1). […]
was resuspended in 4 mL of cleavage buffer. 30 -40 µL of 1.2 mg/mL Tobacco etch virus ( TEV) protease was added to the mixture and incubated overnight at 4 °C. After T EV cleavage, the protein was concentrated to 500 µL using the 4 mL Amicon®Ultra centrifugal fi lter (Merck Millipore) with a membrane nominal molecular weight cut off of 10 kDa. The concentrated protein was then filtered through a 0.22 µm centrifugal filter (Merck Millipore). […]
the bottom of gel. […] Concentration of the protein was determined using a protein assay dye reagent (Bio-Rad). […]
The concentration of the protein sample in mg/mL was then calculated by multiplying by ‘17’, which represents a factor calculated from a BSA standard curve. […]
complex and inhibitor were then incubated at 20 °C, 100 RPM for 2 hours . […] Fluorescence intensity was determined with the Victor […]
IC50 values were calculated using GraphPad

## O=C(CCCCCCC(=O)Nc1ccccc1)NO [SAHA, vorinostat]
  effect of InsP6 on inhibition: no significant effects
